These are yes or no findings as the source states them, for the method shown. In cells and extracts the contact can be indirect. Some binding calls cover weakened binding; strength is not graded here.

Protein sequences, listed by entry. Tags and fused reporters are not part of them.
UniProt Q15172: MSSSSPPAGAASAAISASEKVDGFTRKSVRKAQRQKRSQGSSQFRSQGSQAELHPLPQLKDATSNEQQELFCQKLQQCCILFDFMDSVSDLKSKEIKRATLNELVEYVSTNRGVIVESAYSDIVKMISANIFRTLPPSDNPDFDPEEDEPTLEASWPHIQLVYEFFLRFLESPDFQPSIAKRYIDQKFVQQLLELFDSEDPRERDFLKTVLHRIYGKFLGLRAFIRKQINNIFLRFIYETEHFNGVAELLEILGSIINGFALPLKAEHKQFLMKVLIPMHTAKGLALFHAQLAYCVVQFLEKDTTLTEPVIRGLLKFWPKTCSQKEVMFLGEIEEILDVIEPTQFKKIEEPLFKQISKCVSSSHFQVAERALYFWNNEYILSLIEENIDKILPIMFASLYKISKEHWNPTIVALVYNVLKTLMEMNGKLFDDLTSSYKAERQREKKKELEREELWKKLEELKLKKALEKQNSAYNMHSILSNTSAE
UniProt Q9Y2I7: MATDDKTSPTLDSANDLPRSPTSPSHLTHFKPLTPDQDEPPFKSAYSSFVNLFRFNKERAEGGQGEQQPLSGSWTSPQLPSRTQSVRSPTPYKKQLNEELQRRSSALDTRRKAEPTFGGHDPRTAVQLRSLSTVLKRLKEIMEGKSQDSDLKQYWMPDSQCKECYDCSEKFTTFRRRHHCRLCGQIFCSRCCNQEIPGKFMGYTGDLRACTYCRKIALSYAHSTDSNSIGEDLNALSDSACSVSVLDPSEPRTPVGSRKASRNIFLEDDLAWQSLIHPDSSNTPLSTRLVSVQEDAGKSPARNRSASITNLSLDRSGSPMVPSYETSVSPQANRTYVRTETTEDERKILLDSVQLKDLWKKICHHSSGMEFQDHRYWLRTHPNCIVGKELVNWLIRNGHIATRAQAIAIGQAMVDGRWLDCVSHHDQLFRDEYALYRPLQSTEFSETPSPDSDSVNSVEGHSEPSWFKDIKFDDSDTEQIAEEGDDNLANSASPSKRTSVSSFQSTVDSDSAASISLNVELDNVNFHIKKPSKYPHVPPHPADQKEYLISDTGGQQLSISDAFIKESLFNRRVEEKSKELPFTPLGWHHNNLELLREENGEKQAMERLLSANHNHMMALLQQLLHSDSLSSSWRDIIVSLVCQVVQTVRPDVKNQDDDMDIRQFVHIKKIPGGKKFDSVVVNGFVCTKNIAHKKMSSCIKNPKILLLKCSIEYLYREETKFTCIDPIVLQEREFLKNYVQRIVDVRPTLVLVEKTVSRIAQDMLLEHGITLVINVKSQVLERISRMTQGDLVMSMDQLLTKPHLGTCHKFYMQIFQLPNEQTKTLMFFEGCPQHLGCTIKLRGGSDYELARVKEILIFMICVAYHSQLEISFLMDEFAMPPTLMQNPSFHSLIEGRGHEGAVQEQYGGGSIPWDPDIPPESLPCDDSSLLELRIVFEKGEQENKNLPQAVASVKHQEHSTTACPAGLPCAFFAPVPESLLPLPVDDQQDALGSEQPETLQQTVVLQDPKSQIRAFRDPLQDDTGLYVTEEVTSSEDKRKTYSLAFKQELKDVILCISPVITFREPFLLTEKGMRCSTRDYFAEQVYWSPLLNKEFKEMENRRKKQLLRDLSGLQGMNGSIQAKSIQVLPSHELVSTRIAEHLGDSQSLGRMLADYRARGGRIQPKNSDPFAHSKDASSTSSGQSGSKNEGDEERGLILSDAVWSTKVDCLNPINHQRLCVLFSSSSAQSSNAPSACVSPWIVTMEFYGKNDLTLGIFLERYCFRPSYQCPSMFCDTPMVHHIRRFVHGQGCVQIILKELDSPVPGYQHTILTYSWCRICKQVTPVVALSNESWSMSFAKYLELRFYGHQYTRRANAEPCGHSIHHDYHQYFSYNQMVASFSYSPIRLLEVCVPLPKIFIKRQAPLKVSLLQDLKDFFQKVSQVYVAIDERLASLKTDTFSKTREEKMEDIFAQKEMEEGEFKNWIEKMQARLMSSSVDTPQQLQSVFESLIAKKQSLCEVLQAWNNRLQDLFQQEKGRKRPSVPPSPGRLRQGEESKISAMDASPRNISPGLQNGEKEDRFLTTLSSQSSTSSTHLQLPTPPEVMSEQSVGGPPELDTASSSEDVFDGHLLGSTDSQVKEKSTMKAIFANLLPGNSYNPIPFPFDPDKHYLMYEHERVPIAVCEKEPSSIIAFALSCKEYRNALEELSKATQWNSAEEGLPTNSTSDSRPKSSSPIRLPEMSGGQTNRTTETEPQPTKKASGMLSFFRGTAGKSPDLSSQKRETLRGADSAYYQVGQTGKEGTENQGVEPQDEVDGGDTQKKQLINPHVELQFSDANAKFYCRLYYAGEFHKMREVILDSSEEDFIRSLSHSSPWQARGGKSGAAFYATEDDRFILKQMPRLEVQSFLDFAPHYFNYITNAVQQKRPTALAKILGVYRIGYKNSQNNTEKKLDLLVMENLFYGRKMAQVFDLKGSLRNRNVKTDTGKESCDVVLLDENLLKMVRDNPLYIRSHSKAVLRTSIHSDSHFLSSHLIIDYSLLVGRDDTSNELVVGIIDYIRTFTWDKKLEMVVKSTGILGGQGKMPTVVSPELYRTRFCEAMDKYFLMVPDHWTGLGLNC

The target in test [1] is B56α endogenous protein (human (endogenous in HEK293T)) (UniProt Q15172). The experiment in a line: co-IP.
The next test has as its target HA-B56α (UniProt Q15172). Description: proximity ligation.

“PIKfyve-GFP (from UniProt Q9Y2I7 1-2098) (enzyme)”: the binding result (in test [1]; with HA-B56α) was “binds” throughout.

(Values after publication doi:10.1101/2025.07.14.664742.)
